Data as given in PubChem BioAssay AID1259308 (NCATS, 2017)

Test: 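Candidate targets for better recombinant protein yield in mammalian cells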 (primary screen)
Cells: human HEK293 embryonic kidney cells stably expressing firefly luciferase (HEK-CMV-Luc2-Hygro)
Reagents: single siRNA against human genes, 0.8 pmol siRNA per well
Timing: 72 h
Measurement: 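Reporter luminescence and viable-cell signal on separate replicate plates, given as percent of non-targeting control and median/MAD z-scores, plus per-cell luciferase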
Direction: total luciferase, z-score and total luciferase, % of control: higher = more reporter protein produced
Call rule: 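Active when the median/MAD z-score for overall luciferase is greater than 3; a gene was taken forward for validation with new siRNAs if at least two of its three siRNAs passed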
Meaning of the calls: active = raised luciferase; inactive = no rise
This is a random part of about 59,000 reagents. About 1,510 of all reagents (2.6%) count as active. 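Calls use total luciferase alone and ignore viability, so some active siRNAs may act by altering cell number.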 A number with no mark means an inactive call. Reagents against one gene are numbered here. Further read-outs or replicates are left out here.

no.	Gene	reagent	total luciferase, z-score	total luciferase, % of control
1	TMEM150A (GeneID 129303)	1	1.25	107
2	TMEM150A (GeneID 129303)	2	0.443	90.7
3	TMEM150A (GeneID 129303)	3	0.267	87.2
4	PDLIM7 (GeneID 9260)	1	0.309	88
5	PDLIM7 (GeneID 9260)	2	-0.303	75.9
6	PDLIM7 (GeneID 9260)	3	1.58	113
7	TBX1 (GeneID 6899)	1	3.32 (active)	148
8	TBX1 (GeneID 6899)	2	3.25 (active)	147
9	TBX1 (GeneID 6899)	3	-0.29	76.1
10	POP4 (GeneID 10775)	1	0.268	87.2
11	POP4 (GeneID 10775)	2	-0.414	73.7
12	POP4 (GeneID 10775)	3	-0.761	66.8
13	NET1 (GeneID 10276)	1	-0.251	76.9
14	NET1 (GeneID 10276)	2	0.562	93.1
15	NET1 (GeneID 10276)	3	0.388	89.6
16	TGFBR2 (GeneID 7048)	1	0.266	87.2
17	TGFBR2 (GeneID 7048)	2	-0.209	77.7
18	TGFBR2 (GeneID 7048)	3	0.423	90.3
19	TNFRSF10A-DT (GeneID 389641)	1	-1.41	53.8
20	TNFRSF10A-DT (GeneID 389641)	2	0.247	86.8
21	TNFRSF10A-DT (GeneID 389641)	3	0.328	88.4
22	FYTTD1 (GeneID 84248)	1	2.55	133
23	FYTTD1 (GeneID 84248)	2	-0.578	70.4
24	FYTTD1 (GeneID 84248)	3	2.19	125

Entries listed so far with an active call, once more:
Gene	reagent	total luciferase, z-score	total luciferase, % of control
TBX1 (GeneID 6899)	1	3.32 (active)	148
TBX1 (GeneID 6899)	2	3.25 (active)	147
